According to US12617819 (dated 2026):

Test: general procedure: Fmoc solid-phase peptide synthesis; Rink amide MBHA resin (0.31 mmol/g)
Conditions: UPLC, TFA

Q: What does the source list for “NH2-Cys-Thr-Asn-Met-Leu-Trp-Gln-Val-Phe-Glu-cyclo[Lys-Ala-Arg-Lys-Glu]-Asp-Leu-Tyr-Lys-Ser-Tyr-Asp-Ser-Thr-Phe-Thr-Gly-Gln-Aib-His-H”?
A: crude HPLC purity (cyclisation step): 18.0%; crude HPLC purity (whole synthesis, scale of the general procedure 80.0 g resin): 61.6%
